Values from PubChem BioAssay AID1259254 (NCATS, 2017)
Purpose: 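Finding genes that stop cells copying their DNA twice in one cycle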 (primary screen). Cell system: human HCT116 colorectal cancer cells. Knock-down reagent: single siRNA against human genes. Timing: 3 days. Detection: 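Nuclei stained with Hoechst and imaged; cell-cycle phase assigned by DNA content; G2 share scaled per plate, non-targeting siRNA 0%, GMNN siRNA 100%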. Reading the numbers: G2 robust z-score and G2 cells, % of GMNN control: higher = more G2 cells, more excess DNA replication. Hit rule: 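Active siRNAs have a G2 robust z of 5 or more median absolute deviations over the median, which in these data means about 38% or higher of GMNN control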.
In all, the deposit lists about 59,000 reagents; this is an unselected part. About 1,550 of them (2.6%) were called active. 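G2 share is only a proxy for re-replication; each gene was hit by three separate siRNAs, and active genes were retested.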 The numbers tell different reagents against one gene apart. Not all columns of the deposit are shown. Not given: the amount of reagent.

For ANKRD20A12P (ankyrin repeat domain 20 family member A12, pseudogene) #1, the values are G2 robust z-score -0.379; G2 cells, % of GMNN control 0.299; inactive.
Knock-down of ANKRD20A12P (ankyrin repeat domain 20 family member A12, pseudogene) #2 resulted in: G2 robust z-score -0.226; G2 cells, % of GMNN control 1.38; inactive.
For ANKRD20A12P (ankyrin repeat domain 20 family member A12, pseudogene) #3, the entry reads G2 robust z-score 0.921; G2 cells, % of GMNN control 9.45; inactive.
Against PGC (progastricsin) #1, the values are G2 robust z-score 1.56; G2 cells, % of GMNN control 14; inactive.
With knock-down of PGC (progastricsin) #2 the results were G2 robust z-score 0.332; G2 cells, % of GMNN control 5.31; inactive.
For PGC (progastricsin) #3, the entry reads G2 robust z-score -1.1; G2 cells, % of GMNN control -4.75; inactive.
For OR5H6 (olfactory receptor family 5 subfamily H member 6) #1 the deposit lists G2 robust z-score -0.476; G2 cells, % of GMNN control -0.383; inactive.
For OR5H6 (olfactory receptor family 5 subfamily H member 6) #2 the deposit lists G2 robust z-score 6.44; G2 cells, % of GMNN control 48.3; active.
Depletion of OR5H6 (olfactory receptor family 5 subfamily H member 6) #3 resulted in: G2 robust z-score -1.09; G2 cells, % of GMNN control -4.71; inactive.
Knock-down of SUN3 (Sad1 and UNC84 domain containing 3) #1 gave: G2 robust z-score 0.473; G2 cells, % of GMNN control 6.29; inactive.
Knock-down of SUN3 (Sad1 and UNC84 domain containing 3) #2 resulted in: G2 robust z-score 2.29; G2 cells, % of GMNN control 19.1; inactive.
After knock-down of SUN3 (Sad1 and UNC84 domain containing 3) #3, the screen gave G2 robust z-score 0.18; G2 cells, % of GMNN control 4.24; inactive.
